According to paper PMC12196278, “Targeting Neuronal Nitric Oxide Synthase (nNOS) as a Novel Approach to Enhancing the Anti-Melanoma Activity of Immune Checkpoint Inhibitors” (Pharmaceutics, 2025):

Tested on: A375 cells
Experiment: NanoString nCounter PanCancer IO 360 gene expression profiling
Format: cell-based, human
Method: After treatment, the total RNA samples were collected from A375 cells using an RNeasy Mini Kit (#74104; Qiagen, Hilden, Germany) and stored at −80 °C prior to analysis. The nCounter PanCancer IO 360 Panel and nCounter Pro Analysis System (NanoString, Seattle, WA, USA) were used to quantify gene expression changes in 770 genes implicated in immune-oncological processes. The transcriptomic data were analyzed using ROSALIND online platform (https://www.rosalind.bio/, San Diego, CA, USA).
(b) Comparing IFN-γ treatment to control. (c) Comparing the combination treatment to IFN-γ alone. […] All the treatments were independently repeated three times. […] The analysis was based on the expression changes of genes involved in each specific pathway, with a higher score signifying a greater probability of pathway involvement.

[1] = HH044 54 h vs control, p < 0.05
[2] = HH044 cotreatment with IFN-γ vs IFN-γ alone, p < 0.05
[3] = cotreatment HH044 and IFN-γ (250 units/mL) vs IFN-γ alone

N=C(Nc1ccc(CCNCc2cccc(NC(=N)c3cccs3)c2)cc1)c1cccs1 [HH044]
Significance Score, Angiogenesis (HH044 20 μM, 54 h, vs control): 1.7702
Significance Score, Hedgehog signaling (HH044 20 μM, 54 h, vs control): 2.1423
Significance Score, Hypoxia (HH044 20 μM, 54 h, vs control): 1.5394
Significance Score, Lymphoid compartment (HH044 20 μM, 54 h, vs control): 1.6172
Significance Score, Matrix remodeling and metastasis (HH044 20 μM, 54 h, vs control): 1.94
Significance Score, NF-kappaB signaling (HH044 20 μM, 54 h, vs control): 1.6256
Significance Score, P13K-Akt (HH044 20 μM, 54 h, vs control): 1.5824
Significance Score, TGF-beta signaling (HH044 20 μM, 54 h, vs control): 1.8043
Significance Score, Wnt signaling (HH044 20 μM, 54 h, vs control): 2.2673
genes downregulated [1]: 30 genes
genes statistically significantly upregulated [1]: 18 genes
genes downregulated [2]: 21 genes
genes upregulated [2]: 16 genes
Significance Score, Cytokine and chemokine signaling [3]: 1.426
Significance Score, Hypoxia [3]: 1.5236
Significance Score, JAK-STAT signaling [3]: 1.4508
Significance Score, Matrix remodeling and metastasis [3]: 1.6136
Significance Score, Metabolic stress [3]: 1.4603
Significance Score, Notch signaling [3]: 1.7019
Significance Score, P13K-Akt [3]: 1.6044
